# Results deposited as PubChem BioAssay AID1508588 (Peter MacCallum Cancer Centre, 2020)
# Screen: 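Genome-wide search for knock-downs that heighten vemurafenib action in melanoma cells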 (primary screen)
# Cell system: human WM266.4 melanoma cells (BRAF V600 mutant)
# Reagents: siRNA pool against human genes, 40 nM
# Duration: 96 h from transfection to read-out
# Treatment: vemurafenib 300 nM (about IC25), added 48 h after transfection, for 48 h; comparison arm got DMSO vehicle only
# Detection: 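Ratios to non-targeting siRNA for cell gain, counted as DAPI nuclei after minus before drug and averaged over two replicates, and for absorbance-read medium lactate per cell; both binned into fold-change classes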
# Direction: cell gain with vemurafenib: higher = more cell gain than with non-targeting siRNA; lactate per cell with vemurafenib: higher = more lactate made per cell
# Active means: 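a knock-down counts as enhancing when its fold-change classes with vehicle and with vemurafenib, taken together, show a stronger drug effect on cell gain or lactate per cell; exact class pairs not stated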
# Meaning of the calls: active = enhances vemurafenib effect; inactive = no enhancement seen
# Shown is one part, drawn at random, of about 18,000 reagents. 790 of all reagents (4.4%) count as active. 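Calls rest on a combination of fold-change classes in drug and vehicle arms, not all shown here.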
target,cell gain with vemurafenib,lactate per cell with vemurafenib,Outcome
TUBGCP3 (tubulin gamma complex component 3),0.41,0.46,inactive
MED28 (mediator complex subunit 28),0.47,1.08,inactive
TRIM71 (tripartite motif containing 71),0.71,1.45,inactive
ITGB6 (integrin subunit beta 6),0.35,1.09,inactive
PIK3C3 (phosphatidylinositol 3-kinase catalytic subunit type 3),0.6,1.27,inactive
GALNT5 (polypeptide N-acetylgalactosaminyltransferase 5),0.51,0.64,inactive
ARL6IP1 (ARL6 interacting reticulophagy regulator 1),0.31,0.22,inactive
GLOD4 (glyoxalase domain containing 4),0.89,0.87,inactive
FGF12 (fibroblast growth factor 12),0.98,1.5,inactive
TYRO3 (TYRO3 protein tyrosine kinase),0.45,1.21,inactive
CATSPERD (catsper channel auxiliary subunit delta),0.44,0.73,inactive
LMO3 (LIM domain only 3),0.61,1.29,inactive
KLHL26 (kelch like family member 26),0.39,0.57,inactive
S100A7A (S100 calcium binding protein A7A),0.3,0.44,active
PLSCR2 (phospholipid scramblase 2),0.49,1.22,inactive
"SH3GL2 (SH3 domain containing GRB2 like 2, endophilin A1)",1.48,0.62,inactive
TACR3 (tachykinin receptor 3),0.68,0.9,inactive
ZNF333 (zinc finger protein 333),1.1,0.84,inactive
CYP3A43 (cytochrome P450 family 3 subfamily A member 43),0.29,1.86,inactive
EIF2B4 (eukaryotic translation initiation factor 2B subunit delta),0.71,0.7,inactive
FST (follistatin),0.38,0.92,inactive
HAO2 (hydroxyacid oxidase 2),0.33,0.9,inactive
CRBN (cereblon),0.49,1.28,inactive
SOCS5 (suppressor of cytokine signaling 5),0.89,0.56,inactive
EDC3 (enhancer of mRNA decapping 3),0.41,1.12,inactive
TCF12 (transcription factor 12),0.36,1.78,inactive
NPTN (neuroplastin),0.98,0.56,inactive
BIRC6 (baculoviral IAP repeat containing 6),0.71,0.7,inactive
FAM114A2 (family with sequence similarity 114 member A2),0.88,0.69,inactive
PTOV1 (PTOV1 extended AT-hook containing adaptor protein),0.68,1.18,inactive
CBX3 (chromobox 3),0,0,inactive
PARN (poly(A)-specific ribonuclease),1.2,0.66,inactive
SMC4 (structural maintenance of chromosomes 4),0.39,1.03,inactive
GRIK4 (glutamate ionotropic receptor kainate type subunit 4),0.29,2.04,inactive

Records above whose gene name begins with S or s (4):
target,cell gain with vemurafenib,lactate per cell with vemurafenib,Outcome
S100A7A (S100 calcium binding protein A7A),0.3,0.44,active
"SH3GL2 (SH3 domain containing GRB2 like 2, endophilin A1)",1.48,0.62,inactive
SOCS5 (suppressor of cytokine signaling 5),0.89,0.56,inactive
SMC4 (structural maintenance of chromosomes 4),0.39,1.03,inactive
